These results are taken from publication PMC8877913.

Amino acid sequences for entries named in this document (tags omitted).
UniProt O75643: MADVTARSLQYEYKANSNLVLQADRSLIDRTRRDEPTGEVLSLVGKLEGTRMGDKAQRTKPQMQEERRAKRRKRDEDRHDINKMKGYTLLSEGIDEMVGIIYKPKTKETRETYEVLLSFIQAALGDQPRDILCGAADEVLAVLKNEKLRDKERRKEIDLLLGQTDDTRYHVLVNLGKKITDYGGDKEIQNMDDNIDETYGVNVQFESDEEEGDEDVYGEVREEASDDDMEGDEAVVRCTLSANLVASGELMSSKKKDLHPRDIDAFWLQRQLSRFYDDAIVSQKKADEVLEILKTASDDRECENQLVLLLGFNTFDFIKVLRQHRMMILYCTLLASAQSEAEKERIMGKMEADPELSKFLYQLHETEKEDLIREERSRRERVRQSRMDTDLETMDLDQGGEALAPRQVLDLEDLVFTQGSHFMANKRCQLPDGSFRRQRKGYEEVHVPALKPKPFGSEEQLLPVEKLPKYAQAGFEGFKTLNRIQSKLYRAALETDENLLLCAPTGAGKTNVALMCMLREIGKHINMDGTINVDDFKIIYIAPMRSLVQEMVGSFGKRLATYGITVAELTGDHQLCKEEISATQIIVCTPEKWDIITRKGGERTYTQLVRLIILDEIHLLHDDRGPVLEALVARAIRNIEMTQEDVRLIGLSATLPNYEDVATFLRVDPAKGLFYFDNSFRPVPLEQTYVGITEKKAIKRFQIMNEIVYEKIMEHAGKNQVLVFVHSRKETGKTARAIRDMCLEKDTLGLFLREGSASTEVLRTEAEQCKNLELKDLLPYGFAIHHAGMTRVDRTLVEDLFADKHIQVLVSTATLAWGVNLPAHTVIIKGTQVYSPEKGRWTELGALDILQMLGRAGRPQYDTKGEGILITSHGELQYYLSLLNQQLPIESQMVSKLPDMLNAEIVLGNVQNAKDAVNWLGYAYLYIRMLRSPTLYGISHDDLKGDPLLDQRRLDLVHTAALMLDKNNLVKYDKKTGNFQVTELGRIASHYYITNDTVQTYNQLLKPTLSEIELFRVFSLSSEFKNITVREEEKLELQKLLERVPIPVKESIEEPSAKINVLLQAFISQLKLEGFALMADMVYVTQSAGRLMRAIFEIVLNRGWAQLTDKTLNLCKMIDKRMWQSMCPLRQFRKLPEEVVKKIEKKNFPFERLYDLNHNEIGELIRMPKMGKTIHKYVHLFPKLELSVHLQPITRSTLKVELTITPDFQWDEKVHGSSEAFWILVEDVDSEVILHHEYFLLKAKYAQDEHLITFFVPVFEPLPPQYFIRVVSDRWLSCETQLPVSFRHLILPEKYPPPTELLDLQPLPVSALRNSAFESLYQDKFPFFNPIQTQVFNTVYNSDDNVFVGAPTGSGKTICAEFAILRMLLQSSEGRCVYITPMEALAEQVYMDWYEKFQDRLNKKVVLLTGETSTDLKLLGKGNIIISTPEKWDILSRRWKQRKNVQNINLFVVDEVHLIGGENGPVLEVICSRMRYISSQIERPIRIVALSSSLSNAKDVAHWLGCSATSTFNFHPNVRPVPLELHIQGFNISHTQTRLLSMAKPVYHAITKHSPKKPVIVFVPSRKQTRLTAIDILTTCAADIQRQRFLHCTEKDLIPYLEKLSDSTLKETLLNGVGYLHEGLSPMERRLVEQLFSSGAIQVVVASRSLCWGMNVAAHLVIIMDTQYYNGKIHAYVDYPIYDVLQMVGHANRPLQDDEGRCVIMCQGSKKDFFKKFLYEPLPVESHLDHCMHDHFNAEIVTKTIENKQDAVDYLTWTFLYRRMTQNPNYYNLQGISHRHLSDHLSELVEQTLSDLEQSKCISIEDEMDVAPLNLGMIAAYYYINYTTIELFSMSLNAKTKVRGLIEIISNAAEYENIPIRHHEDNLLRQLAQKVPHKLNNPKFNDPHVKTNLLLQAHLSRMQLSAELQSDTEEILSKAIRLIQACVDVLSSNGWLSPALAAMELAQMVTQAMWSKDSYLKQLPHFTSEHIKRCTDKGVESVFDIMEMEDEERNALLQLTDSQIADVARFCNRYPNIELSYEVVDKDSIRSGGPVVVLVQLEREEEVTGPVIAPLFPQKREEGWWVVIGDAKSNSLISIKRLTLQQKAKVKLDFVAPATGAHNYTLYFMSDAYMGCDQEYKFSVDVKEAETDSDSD

Sequences and labels used below:
B1: hnRNPL (protein, UniProt P14866 1-589)
chain: MSRRLLPRAEKRRRRLEQRQQPDEQRRRSGAMVKMAAAGGGGGGGRYYGGGSEGGRAPKRLKTDNAGDQHGGGGGGGGGAGAAGGGGGGENYDDPHKTPASPVVHIRGLIDGVVEADLVEALQEFGPISYVVVMPKKRQALVEFEDVLGACNAVNYAADNQIYIAGHPAFVNYSTSQKISRPGDSDDSRSVNSVLLFTILNPIYSITTDVLYTICNPCGPVQRIVIFRKNGVQAMVEFDSVQSAQRAKASLNGADIYSGCCTLKIEYAKPTRLNVFKNDQDTWDYTNPNLSGQGDPGSNPNKRQRQPPLLGDHPAEYGGPHGGYHSHYHDEGYGPPPPHYEGRRMGPPVGGHRRGPSRYGPQYGHPPPPPPPPEYGPHADSPVLMVYGLDQSKMNCDRVFNVFCLYGNVEKVKFMKSKPGAAMVEMADGYAVDRAITHLNNNFMFGQKLNVCVSKQPAIMPGQSYGLEDGSCSYKDFSESRNNRFSTPEQAAKNRIQHPSNVLHFFNAPLEVTEENFFEICDELGVKRPSSVKVFSGKSERSSSGLLEWESKSDALETLGFLNHYQMKNPNGPYPYTLKLCFSTAQHAS
B2: NONO (non-POU domain-containing octamer-binding protein NONO/p54nrb) (protein, UniProt Q15233 1-471)
chain: MQSNKTFNLEKQNHTPRKHHQHHHQQQHHQQQQQQPPPPPIPANGQQASSQNEGLTIDLKNFRKPGEKTFTQRSRLFVGNLPPDITEEEMRKLFEKYGKAGEVFIHKDKGFGFIRLETRTLAEIAKVELDNMPLRGKQLRVRFACHSASLTVRNLPQYVSNELLEEAFSVFGQVERAVVIVDDRGRPSGKGIVEFSGKPAARKALDRCSEGSFLLTTFPRPVTVEPMDQLDDEEGLPEKLVIKNQQFHKEREQPPRFAQPGSFEYEYAMRWKALIEMEKQQQDQVDRNIKEAREKLEMEMEAARHEHQVMLMRQDLMRRQEELRRMEELHNQEVQKRKQLELRQEEERRRREEEMRRQQEEMMRRQQEGFKGTFPDAREQEIRMGQMAMGGAMGINNRGAMPPAPVPAGTPAPPGPATMMPDGTLGLTPPTTERFGQAATMEGIGAIGGTPPAFNRAAPGAEFAPNKRRRY

Results are given in words; binding and its absence hold for the method and conditions named. In cells and extracts the contact can be indirect. Here binding means that the protein was enriched with, or labelled near, the bait; the list need not be complete. Where a sequence is shown, tags or fusion partners need not be part of it.

For this assay, the target named is T1, His-Halo-tagged Rex (HTLV-1 Rex) (HTLV-1) (UniProt P0C206).
T1 sequence: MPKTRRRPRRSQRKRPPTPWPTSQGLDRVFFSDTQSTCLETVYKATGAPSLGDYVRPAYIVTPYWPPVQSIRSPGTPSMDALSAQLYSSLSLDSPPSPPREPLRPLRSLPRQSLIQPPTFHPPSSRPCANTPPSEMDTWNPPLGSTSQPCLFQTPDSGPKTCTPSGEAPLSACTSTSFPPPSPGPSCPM
In words: affinity purification with mass spectrometry.
As to snRNAP200 (from UniProt O75643 1-2136), the binding result is “binds”.
Under B1 stands “binds”.
Under B2 stands “binds”.
